Laboratory results taken from publication PMC6570784.
These are yes or no findings as the source states them, for the method shown. Binding seen in cells or lysates may run through a third protein. Some results given as binding are weak or reduced against the parent protein; the word gives no strength.

The chains behind the UniProt entries cited, without tags or fusion partners. Where a name states a change or a piece, a line headed by the entry shows the natural chain unless it says otherwise.
UniProt P35637: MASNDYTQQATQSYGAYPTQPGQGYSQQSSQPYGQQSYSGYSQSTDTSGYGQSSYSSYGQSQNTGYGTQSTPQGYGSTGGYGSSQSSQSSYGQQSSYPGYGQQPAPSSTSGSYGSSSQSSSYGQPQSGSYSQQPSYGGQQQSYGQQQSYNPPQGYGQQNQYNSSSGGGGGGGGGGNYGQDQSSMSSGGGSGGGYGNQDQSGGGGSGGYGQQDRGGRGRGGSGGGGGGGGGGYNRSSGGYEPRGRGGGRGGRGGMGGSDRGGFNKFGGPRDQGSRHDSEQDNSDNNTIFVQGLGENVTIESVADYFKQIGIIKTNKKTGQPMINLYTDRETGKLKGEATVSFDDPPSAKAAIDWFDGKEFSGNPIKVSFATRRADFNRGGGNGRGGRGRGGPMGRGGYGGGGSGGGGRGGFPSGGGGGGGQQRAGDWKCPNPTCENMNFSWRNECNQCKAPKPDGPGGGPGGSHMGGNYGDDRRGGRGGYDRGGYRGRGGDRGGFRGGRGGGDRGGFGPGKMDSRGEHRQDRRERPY
UniProt Q13148: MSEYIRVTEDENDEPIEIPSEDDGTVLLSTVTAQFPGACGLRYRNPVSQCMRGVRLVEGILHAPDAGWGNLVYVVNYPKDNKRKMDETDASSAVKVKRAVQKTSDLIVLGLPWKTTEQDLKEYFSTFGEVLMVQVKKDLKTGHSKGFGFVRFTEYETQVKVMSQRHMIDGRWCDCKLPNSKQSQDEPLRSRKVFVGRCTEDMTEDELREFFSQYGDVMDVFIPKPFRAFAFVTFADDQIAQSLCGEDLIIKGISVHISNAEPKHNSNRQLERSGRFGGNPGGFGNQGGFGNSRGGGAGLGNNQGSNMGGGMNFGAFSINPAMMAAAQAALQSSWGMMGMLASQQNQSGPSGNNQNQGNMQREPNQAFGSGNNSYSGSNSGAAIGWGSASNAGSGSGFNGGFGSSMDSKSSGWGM
UniProt Q01844: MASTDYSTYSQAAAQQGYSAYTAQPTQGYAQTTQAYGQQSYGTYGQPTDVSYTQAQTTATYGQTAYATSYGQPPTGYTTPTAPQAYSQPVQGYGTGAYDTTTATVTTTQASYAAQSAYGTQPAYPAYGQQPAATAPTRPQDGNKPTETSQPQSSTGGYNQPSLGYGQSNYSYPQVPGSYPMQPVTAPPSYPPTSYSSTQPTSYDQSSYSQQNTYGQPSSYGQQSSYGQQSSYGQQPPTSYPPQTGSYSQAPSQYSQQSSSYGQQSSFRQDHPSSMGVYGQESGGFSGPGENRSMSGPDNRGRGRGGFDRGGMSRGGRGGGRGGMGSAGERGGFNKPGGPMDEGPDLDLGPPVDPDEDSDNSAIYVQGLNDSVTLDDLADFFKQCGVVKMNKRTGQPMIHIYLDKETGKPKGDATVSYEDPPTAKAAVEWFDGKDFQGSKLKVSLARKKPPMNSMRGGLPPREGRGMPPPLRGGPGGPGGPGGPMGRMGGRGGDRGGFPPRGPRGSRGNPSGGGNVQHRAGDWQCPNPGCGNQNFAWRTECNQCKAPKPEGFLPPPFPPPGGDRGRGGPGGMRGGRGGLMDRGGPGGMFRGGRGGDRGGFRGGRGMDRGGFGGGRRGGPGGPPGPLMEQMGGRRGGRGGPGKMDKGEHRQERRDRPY

Tests used:
Assay in all cases: co-IP; GFP-Trap immunoprecipitation of FUS-eGFP from LL and SL iPSC-derived neurons, Western blot of the interactors
[1] = molecular target: LL P525L FUS-eGFP (human (endogenous in iPSC-derived neurons)) (UniProt P35637)
[2] = molecular target: LL WT FUS-eGFP (human (endogenous in iPSC-derived neurons)) (UniProt P35637)
[3] = molecular target: SL P525L FUS-eGFP (human (endogenous in iPSC-derived neurons)) (UniProt P35637)
[4] = molecular target: SL WT FUS-eGFP (human (endogenous in iPSC-derived neurons)) (UniProt P35637)

binding [1]	binding [2]	binding [3]	binding [4]	Molecule
binds	binds			TAR DNA-binding protein 43 (from UniProt Q13148 1-414)
binds	binds	binds	binds	Ewing sarcoma breakpoint region 1 (from UniProt Q01844 1-656)
binds	binds			Matrin3 (protein, UniProt P43243 1-847) MSKSFQQSSLSRDSQGHGRDLSAAGIGLLAAATQSLSMPASLGRMNQGTARLASLMNLGMSSSLNQQGAHSALSSASTSSHNLQSIFNIGSRGPLPLSSQHRGDADQASNILASFGLSARDLDELSRYPEDKITPENLPQILLQLKRRRTEEGPTLSYGRDGRSATREPPYRVPRDDWEEKRHFRRDSFDDRGPSLNPVLDYDHGSRSQESGYYDRMDYEDDRLRDGERCRDDSFFGETSHNYHKFDSEYERMGRGPGPLQERSLFEKKRGAPPSSNIEDFHGLLPKGYPHLCSICDLPVHSNKEWSQHINGASHSRRCQLLLEIYPEWNPDNDTGHTMGDPFMLQQSTNPAPGILGPPPPSFHLGGPAVGPRGNLGAGNGNLQGPRHMQKGRVETSRVVHIMDFQRGKNLRYQLLQLVEPFGVISNHLILNKINEAFIEMATTEDAQAAVDYYTTTPALVFGKPVRVHLSQKYKRIKKPEGKPDQKFDQKQELGRVIHLSNLPHSGYSDSAVLKLAEPYGKIKNYILMRMKSQAFIEMETREDAMAMVDHCLKKALWFQGRCVKVDLSEKYKKLVLRIPNRGIDLLKKDKSRKRSYSPDGKESPSDKKSKTDGSQKTESSTEGKEQEEKSGEDGEKDTKDDQTEQEPNMLLESEDELLVDEEEAAALLESGSSVGDETDLANLGDVASDGKKEPSDKAVKKDGSASAAAKKKLKKVDKIEELDQENEAALENGIKNEENTEPGAESSENADDPNKDTSENADGQSDENKDDYTIPDEYRIGPYQPNVPVGIDYVIPKTGFYCKLCSLFYTNEEVAKNTHCSSLPHYQKLKKFLNKLAEERRQKKET
